These are yes or no findings as the source states them, for the method shown. For some assays here: Binding seen in cells or lysates may run through a third protein. Some binding calls cover weakened binding; strength is not graded here.
Columns and labels:
[1] = biological target: Myc-OTULIN (UniProt Q96BN8); assay: co-IP; HEK293T cotransfected with two differently tagged OTULIN constructs (Myc, HA, GFP), 48 h; IP anti-HA or anti-Myc; in Fig. 3H also after Etop (10 μM, 2 h) or CPT (10 μM)
[2] = biological target: HA-OTULIN N terminus (N) (UniProt Q96BN8); assay: as above
[3] = biological target: HA-OTULIN C17/47A (UniProt Q96BN8); assay: non-reducing SDS-PAGE and immunoblot; OTULIN-KO MDA-MB-231 reconstituted with OTULIN constructs (48 h), Dox (2 μg/mL, 2 h); lysates blotted without DTT or 2-ME; n = 3 independent experiments

The chains behind the UniProt entries cited, without tags or fusion partners. Where a name states a change or a piece, a line headed by the entry shows the natural chain unless it says otherwise. A line that says so, or that is headed by a name, gives the form on record, which may keep a tag or linker. Residues count along the entry.
UniProt Q96BN8: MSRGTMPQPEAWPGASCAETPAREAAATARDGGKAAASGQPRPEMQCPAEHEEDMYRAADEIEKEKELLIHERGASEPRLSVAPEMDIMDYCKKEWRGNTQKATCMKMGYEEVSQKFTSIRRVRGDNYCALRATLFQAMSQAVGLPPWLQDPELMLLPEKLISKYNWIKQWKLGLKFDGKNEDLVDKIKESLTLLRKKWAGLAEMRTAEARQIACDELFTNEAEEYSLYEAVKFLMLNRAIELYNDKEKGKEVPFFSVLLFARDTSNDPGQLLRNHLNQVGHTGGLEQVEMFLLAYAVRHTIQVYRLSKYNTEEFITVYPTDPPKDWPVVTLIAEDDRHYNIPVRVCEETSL
HA-OTULIN N terminus (N): residues 1-80 of Q96BN8
HA-OTULIN K64/66R (Q96BN8, form named): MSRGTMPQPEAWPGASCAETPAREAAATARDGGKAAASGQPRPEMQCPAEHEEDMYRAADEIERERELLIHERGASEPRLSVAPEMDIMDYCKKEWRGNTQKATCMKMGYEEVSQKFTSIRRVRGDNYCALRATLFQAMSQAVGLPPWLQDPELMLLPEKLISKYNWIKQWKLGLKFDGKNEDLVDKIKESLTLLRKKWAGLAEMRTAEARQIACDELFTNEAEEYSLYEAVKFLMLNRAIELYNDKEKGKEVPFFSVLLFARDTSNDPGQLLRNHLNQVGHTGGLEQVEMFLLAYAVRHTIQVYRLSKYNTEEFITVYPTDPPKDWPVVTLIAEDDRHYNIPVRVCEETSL
HA-OTULIN C17/47A (Q96BN8, form named): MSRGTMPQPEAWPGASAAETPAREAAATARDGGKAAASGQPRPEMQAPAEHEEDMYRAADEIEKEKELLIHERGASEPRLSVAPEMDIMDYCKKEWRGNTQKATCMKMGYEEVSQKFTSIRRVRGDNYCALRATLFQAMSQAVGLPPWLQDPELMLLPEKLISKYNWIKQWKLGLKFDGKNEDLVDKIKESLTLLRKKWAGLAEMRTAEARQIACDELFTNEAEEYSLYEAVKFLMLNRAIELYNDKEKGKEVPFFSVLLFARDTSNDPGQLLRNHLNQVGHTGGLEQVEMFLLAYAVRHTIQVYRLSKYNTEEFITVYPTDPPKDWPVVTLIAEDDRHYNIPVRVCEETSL

Substance | binding [1] | further results
HA-OTULIN K64/66R (from UniProt Q96BN8 1-352) (enzyme) | binds | 
GFP-OTULIN (from UniProt Q96BN8 1-352) (enzyme) |  | binding [2]: binds
HA-OTULIN C17/47A (from UniProt Q96BN8 1-352) (enzyme) |  | binding [3]: no binding
HA-OTULIN Y56F (from UniProt Q96BN8 1-352) (enzyme) | binds | 
HA-OTULIN C129S (from UniProt Q96BN8 1-352) (enzyme) | binds | 

Source: paper PMC9388121
